Results as given in publication PMC8213057, “Targeting ALK2: An Open Science Approach to Developing Therapeutics for the Treatment of Diffuse Intrinsic Pontine Glioma” (Journal of Medicinal Chemistry, 2020).

Sequences of proteins named here, by UniProt entry; tags and fusion partners are left off. A change or cut given only in a name is not applied to a line headed by its entry.
UniProt P49760, whole entry: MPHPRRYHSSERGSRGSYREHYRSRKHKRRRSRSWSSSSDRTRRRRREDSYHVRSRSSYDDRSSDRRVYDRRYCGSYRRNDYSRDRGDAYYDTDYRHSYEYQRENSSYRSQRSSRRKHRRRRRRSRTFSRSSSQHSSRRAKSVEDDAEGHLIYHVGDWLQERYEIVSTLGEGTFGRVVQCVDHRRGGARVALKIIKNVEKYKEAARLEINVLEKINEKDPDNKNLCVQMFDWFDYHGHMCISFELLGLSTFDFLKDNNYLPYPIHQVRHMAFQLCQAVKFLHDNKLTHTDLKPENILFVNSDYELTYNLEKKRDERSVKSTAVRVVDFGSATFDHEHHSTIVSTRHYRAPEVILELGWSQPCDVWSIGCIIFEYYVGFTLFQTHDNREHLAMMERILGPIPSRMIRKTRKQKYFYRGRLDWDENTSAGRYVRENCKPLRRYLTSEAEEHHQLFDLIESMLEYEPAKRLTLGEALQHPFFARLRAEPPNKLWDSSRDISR
UniProt Q13233: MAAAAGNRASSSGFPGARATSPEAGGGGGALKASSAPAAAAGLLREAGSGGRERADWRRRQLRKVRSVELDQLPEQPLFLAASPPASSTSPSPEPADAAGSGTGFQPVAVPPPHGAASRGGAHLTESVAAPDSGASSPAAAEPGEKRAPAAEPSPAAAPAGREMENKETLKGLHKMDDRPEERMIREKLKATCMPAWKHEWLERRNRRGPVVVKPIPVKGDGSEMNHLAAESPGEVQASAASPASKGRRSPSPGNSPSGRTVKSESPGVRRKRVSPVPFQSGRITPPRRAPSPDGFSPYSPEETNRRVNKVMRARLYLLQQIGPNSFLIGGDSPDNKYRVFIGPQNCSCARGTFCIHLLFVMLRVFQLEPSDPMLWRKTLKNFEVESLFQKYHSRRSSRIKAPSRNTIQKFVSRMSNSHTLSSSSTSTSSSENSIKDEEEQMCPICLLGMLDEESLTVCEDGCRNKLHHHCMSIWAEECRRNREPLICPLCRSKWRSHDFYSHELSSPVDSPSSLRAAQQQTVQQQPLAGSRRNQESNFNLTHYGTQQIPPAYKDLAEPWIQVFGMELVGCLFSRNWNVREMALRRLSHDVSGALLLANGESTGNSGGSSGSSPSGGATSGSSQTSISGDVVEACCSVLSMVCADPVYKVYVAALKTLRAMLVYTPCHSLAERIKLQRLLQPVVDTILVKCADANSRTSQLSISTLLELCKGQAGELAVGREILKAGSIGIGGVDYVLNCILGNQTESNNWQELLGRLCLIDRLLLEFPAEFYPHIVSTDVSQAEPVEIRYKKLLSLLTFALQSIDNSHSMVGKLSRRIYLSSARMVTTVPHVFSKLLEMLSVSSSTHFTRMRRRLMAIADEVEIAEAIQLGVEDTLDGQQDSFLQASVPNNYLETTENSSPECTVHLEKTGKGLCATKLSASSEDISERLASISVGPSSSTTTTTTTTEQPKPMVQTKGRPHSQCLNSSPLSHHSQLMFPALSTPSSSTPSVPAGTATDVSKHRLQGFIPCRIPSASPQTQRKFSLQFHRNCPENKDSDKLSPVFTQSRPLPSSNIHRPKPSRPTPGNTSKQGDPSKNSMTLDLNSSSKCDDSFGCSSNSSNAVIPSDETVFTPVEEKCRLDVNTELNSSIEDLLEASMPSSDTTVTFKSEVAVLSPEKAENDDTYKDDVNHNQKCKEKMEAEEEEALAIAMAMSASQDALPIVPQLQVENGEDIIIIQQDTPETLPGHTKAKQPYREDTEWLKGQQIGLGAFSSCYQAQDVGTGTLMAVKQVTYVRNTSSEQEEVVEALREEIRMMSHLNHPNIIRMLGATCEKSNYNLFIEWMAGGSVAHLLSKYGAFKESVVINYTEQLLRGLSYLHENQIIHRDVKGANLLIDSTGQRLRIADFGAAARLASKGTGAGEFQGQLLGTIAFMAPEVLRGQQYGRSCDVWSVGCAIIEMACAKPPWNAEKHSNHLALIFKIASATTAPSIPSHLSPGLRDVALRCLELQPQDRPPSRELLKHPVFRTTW
UniProt P51956: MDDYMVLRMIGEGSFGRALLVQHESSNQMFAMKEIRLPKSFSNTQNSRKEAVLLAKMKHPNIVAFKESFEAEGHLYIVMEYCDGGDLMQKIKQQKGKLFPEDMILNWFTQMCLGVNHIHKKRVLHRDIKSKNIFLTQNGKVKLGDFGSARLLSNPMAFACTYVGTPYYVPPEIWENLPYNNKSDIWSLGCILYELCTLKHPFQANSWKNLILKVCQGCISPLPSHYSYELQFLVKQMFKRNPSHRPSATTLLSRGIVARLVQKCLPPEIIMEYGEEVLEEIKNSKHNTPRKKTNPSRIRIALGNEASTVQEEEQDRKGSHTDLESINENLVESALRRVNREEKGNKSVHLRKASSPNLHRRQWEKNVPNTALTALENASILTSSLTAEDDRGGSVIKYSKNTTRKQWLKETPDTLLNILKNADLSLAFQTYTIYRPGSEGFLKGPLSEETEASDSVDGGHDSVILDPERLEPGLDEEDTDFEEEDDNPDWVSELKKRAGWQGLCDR
UniProt Q8TDC3: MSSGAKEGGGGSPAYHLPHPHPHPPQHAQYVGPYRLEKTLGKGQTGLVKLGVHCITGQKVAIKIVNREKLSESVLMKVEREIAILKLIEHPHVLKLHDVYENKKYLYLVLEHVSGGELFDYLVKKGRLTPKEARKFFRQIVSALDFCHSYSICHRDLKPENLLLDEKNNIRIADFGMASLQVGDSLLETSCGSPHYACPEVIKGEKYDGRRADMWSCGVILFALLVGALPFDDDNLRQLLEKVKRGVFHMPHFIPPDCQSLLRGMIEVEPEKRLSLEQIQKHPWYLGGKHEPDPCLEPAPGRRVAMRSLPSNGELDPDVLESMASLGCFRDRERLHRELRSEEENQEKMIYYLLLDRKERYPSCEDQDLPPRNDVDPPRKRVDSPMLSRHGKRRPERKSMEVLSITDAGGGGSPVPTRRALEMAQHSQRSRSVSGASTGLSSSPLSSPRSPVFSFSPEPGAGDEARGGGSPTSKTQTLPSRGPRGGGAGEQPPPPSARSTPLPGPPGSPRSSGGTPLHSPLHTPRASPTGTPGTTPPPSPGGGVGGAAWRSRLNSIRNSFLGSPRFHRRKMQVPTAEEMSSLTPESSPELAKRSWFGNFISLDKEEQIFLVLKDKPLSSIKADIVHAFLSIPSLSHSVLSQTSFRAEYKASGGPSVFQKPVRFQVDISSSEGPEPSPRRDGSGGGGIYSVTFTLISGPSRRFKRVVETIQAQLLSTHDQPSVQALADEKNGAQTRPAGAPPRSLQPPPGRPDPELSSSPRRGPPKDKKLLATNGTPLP
UniProt P08631: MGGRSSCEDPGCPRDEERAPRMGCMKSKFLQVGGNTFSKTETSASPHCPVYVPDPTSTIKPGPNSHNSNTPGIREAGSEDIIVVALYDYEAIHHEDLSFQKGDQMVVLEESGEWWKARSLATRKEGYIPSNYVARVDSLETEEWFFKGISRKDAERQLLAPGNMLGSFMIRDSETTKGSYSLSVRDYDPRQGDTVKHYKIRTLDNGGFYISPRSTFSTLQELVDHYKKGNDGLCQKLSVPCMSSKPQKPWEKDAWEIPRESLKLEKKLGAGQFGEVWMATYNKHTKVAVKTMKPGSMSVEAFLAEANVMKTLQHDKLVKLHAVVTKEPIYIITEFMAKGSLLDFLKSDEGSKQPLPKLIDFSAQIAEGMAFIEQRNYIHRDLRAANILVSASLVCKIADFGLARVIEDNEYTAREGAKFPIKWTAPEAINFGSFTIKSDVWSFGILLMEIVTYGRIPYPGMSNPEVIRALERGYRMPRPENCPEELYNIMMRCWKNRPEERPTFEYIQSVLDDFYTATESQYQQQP
UniProt Q16539, whole entry: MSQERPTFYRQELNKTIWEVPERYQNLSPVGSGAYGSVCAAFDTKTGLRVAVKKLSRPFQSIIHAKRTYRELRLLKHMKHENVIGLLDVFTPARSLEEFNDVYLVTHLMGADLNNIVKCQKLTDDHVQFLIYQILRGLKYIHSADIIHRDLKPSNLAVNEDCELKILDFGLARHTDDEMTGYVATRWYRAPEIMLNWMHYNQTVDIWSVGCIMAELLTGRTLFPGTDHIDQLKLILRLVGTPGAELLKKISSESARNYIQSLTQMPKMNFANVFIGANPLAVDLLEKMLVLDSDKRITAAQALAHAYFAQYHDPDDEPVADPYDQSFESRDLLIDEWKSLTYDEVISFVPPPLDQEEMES
UniProt P41743, whole entry: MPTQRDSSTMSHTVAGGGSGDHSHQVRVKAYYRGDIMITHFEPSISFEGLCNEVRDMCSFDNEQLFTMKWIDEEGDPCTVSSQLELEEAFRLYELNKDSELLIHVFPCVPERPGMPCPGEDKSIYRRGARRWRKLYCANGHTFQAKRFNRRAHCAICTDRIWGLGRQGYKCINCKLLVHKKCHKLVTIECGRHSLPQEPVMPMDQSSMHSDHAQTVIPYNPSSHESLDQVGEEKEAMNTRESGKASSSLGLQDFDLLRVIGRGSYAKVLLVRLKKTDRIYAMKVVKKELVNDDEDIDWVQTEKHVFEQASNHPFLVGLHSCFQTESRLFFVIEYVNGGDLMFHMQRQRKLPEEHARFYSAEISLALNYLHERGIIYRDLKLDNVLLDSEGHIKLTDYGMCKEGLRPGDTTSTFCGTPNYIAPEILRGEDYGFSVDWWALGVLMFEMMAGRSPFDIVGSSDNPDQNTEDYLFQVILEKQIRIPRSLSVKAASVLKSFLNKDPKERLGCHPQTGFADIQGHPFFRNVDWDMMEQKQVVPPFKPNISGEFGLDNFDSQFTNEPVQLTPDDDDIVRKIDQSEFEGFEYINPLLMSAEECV
UniProt O75716, whole entry: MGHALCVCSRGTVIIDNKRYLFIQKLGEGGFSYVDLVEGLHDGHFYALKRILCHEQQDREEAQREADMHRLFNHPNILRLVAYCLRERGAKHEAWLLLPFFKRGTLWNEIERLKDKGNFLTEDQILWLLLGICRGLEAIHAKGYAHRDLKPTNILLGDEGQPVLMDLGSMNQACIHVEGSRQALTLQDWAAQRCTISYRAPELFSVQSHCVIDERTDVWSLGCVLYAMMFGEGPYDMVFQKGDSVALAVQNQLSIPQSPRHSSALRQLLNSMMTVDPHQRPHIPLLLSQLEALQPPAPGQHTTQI
UniProt Q5TCY1: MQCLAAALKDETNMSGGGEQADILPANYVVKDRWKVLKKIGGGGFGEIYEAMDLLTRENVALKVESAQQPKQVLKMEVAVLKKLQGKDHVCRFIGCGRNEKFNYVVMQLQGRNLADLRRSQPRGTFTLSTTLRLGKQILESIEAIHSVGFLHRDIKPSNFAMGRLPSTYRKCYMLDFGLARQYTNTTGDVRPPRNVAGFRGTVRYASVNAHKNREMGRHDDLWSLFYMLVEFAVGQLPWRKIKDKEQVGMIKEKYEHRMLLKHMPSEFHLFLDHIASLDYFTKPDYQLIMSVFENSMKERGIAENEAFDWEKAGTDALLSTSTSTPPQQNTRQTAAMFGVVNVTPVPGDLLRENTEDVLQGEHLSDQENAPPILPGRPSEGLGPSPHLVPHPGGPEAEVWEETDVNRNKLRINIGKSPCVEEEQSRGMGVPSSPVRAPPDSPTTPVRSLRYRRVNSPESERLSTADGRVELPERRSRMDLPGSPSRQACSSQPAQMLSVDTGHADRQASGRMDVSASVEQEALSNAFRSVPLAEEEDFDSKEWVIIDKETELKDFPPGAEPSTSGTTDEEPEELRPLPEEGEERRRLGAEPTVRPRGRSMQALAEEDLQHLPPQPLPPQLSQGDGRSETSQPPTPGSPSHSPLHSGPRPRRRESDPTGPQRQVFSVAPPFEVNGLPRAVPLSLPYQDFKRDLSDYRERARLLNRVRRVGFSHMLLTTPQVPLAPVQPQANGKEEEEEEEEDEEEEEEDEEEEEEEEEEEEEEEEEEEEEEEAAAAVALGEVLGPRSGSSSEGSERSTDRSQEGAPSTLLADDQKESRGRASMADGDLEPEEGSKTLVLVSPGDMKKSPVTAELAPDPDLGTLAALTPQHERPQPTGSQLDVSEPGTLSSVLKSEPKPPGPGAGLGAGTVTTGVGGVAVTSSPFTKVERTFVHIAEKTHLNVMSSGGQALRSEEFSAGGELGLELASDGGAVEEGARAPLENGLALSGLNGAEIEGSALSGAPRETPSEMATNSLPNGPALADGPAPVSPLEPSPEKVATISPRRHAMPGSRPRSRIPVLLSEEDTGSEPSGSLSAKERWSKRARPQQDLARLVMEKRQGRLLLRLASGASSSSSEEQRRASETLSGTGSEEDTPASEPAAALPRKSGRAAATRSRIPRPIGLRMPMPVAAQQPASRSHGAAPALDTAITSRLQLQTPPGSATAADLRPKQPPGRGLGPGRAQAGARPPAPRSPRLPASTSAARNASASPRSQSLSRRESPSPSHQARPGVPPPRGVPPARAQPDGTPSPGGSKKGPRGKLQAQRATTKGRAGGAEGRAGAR

Experiments:
ABL2/ARG = ABL2/ARG (Homo sapiens, UniProt P42684); conditions: 1 μM; Run 1, Run 2
CAMK1a = CAMK1a (Homo sapiens, UniProt Q14012); conditions: 1 μM; Run 1, Run 2
CLK1 = CLK1 (Homo sapiens, UniProt P49759); conditions: 1 μM; Run 1, Run 2
CLK2 = CLK2 (Homo sapiens, UniProt P49760); conditions: 1 μM; Run 1, Run 2
ERN2/IRE2 = ERN2/IRE2 (Homo sapiens, UniProt Q76MJ5); conditions: 1 μM; Run 1, Run 2
LIMK2 = LIMK2 (Homo sapiens, UniProt P53671); conditions: 1 μM; Run 1, Run 2
MEKK1 = MEKK1 (Homo sapiens, UniProt Q13233); conditions: 1 μM; Run 1, Run 2
MKK4 = MKK4 (Homo sapiens, UniProt P45985); conditions: 1 μM; Run 1, Run 2
MLK4 = MLK4 (Homo sapiens, UniProt Q5TCX8); conditions: 1 μM; Run 1, Run 2
MYLK4 [1] = target: T1, MYLK4 (Homo sapiens, UniProt Q86YV6); conditions: 1 μM; Run 1, Run 2
NEK3 = NEK3 (Homo sapiens, UniProt P51956); conditions: 1 μM; Run 1, Run 2
PKG1a = PKG1a (Homo sapiens, UniProt Q13976); conditions: 1 μM; Run 1, Run 2
SIK3 = SIK3 (Homo sapiens, UniProt Q9Y2K2); conditions: 1 μM; Run 1, Run 2
TYK1/LTK = TYK1/LTK (Homo sapiens, UniProt P29376); conditions: 1 μM; Run 1, Run 2
TYRO3/SKY = TYRO3/SKY (Homo sapiens, UniProt Q06418); conditions: 1 μM; Run 1, Run 2
ARK5/NUAK1 = ARK5/NUAK1 (Homo sapiens, UniProt O60285); test: biochemical; conditions: read-out: % enzyme activity, 1 μM; Run 1, Run 2
BRSK1 = BRSK1 (Homo sapiens, UniProt Q8TDC3); test: biochemical; conditions: read-out: % enzyme activity, 1 μM; Run 1, Run 2
BRSK2 = BRSK2 (Homo sapiens, UniProt Q8IWQ3); test: biochemical; conditions: read-out: % enzyme activity, 1 μM; Run 1, Run 2
CAMK1b = CAMK1b (Homo sapiens, UniProt Q6P2M8); test: biochemical; conditions: read-out: % enzyme activity, 1 μM; Run 1, Run 2
CDK16/cyclin Y (PCTAIRE) = CDK16/cyclin Y (PCTAIRE) (Homo sapiens, UniProt Q00536); test: biochemical; conditions: read-out: % enzyme activity, 1 μM; Run 1, Run 2
CHK1 = CHK1 (Homo sapiens, UniProt O14757); test: biochemical; conditions: read-out: % enzyme activity, 1 μM; Run 1, Run 2
DCAMKL1 = DCAMKL1 (Homo sapiens, UniProt O15075); test: biochemical; conditions: read-out: % enzyme activity, 1 μM; Run 1, Run 2
DYRK4 = DYRK4 (Homo sapiens, UniProt Q9NR20); test: biochemical; conditions: read-out: % enzyme activity, 1 μM; Run 1, Run 2
ERN1/IRE1 = ERN1/IRE1 (Homo sapiens, UniProt O75460); test: biochemical; conditions: read-out: % enzyme activity, 1 μM; Run 1, Run 2
HCK = HCK (Homo sapiens, UniProt P08631); test: biochemical; conditions: read-out: % enzyme activity, 1 μM; Run 1, Run 2
JAK1 = JAK1 (Homo sapiens, UniProt P23458); test: biochemical; conditions: read-out: % enzyme activity, 1 μM; Run 1, Run 2
KSR1 = KSR1 (Homo sapiens, UniProt Q8IVT5); test: biochemical; conditions: read-out: % enzyme activity, 1 μM; Run 1, Run 2
KSR2 = KSR2 (Homo sapiens, UniProt Q6VAB6); test: biochemical; conditions: read-out: % enzyme activity, 1 μM; Run 1, Run 2
LATS1 = LATS1 (Homo sapiens, UniProt O95835); test: biochemical; conditions: read-out: % enzyme activity, 1 μM; Run 1, Run 2
LOK/STK10 = LOK/STK10 (Homo sapiens, UniProt O94804); test: biochemical; conditions: read-out: % enzyme activity, 1 μM; Run 1, Run 2
LYN B = LYN B (Homo sapiens, UniProt P07948); test: biochemical; conditions: read-out: % enzyme activity, 1 μM; Run 1, Run 2
MEK1 = MEK1 (Homo sapiens, UniProt Q02750); test: biochemical; conditions: read-out: % enzyme activity, 1 μM; Run 1, Run 2
MYLK4 [2] = target: T1, MYLK4; test: biochemical; conditions: read-out: % enzyme activity, 1 μM; Run 1, Run 2
P38a/MAPK14 = P38a/MAPK14 (Homo sapiens, UniProt Q16539); test: biochemical; conditions: read-out: % enzyme activity, 1 μM; Run 1, Run 2
P38g = P38g (Homo sapiens, UniProt P53778); test: biochemical; conditions: read-out: % enzyme activity, 1 μM; Run 1, Run 2
PKCb1 = PKCb1 (Homo sapiens, UniProt P05771); test: biochemical; conditions: read-out: % enzyme activity, 1 μM; Run 1, Run 2
PKCiota = PKCiota (Homo sapiens, UniProt P41743); test: biochemical; conditions: read-out: % enzyme activity, 1 μM; Run 1, Run 2
RSK1 = RSK1 (Homo sapiens, UniProt Q15418); test: biochemical; conditions: read-out: % enzyme activity, 1 μM; Run 1, Run 2
RSK3 = RSK3 (Homo sapiens, UniProt Q15349); test: biochemical; conditions: read-out: % enzyme activity, 1 μM; Run 1, Run 2
STK16 = STK16 (Homo sapiens, UniProt O75716); test: biochemical; conditions: read-out: % enzyme activity, 1 μM; Run 1, Run 2
TBK1 = TBK1 (Homo sapiens, UniProt Q9UHD2); test: biochemical; conditions: read-out: % enzyme activity, 1 μM; Run 1, Run 2
TLK2 = TLK2 (Homo sapiens, UniProt Q86UE8); test: biochemical; conditions: read-out: % enzyme activity, 1 μM; Run 1, Run 2
TTBK1 = TTBK1 (Homo sapiens, UniProt Q5TCY1); test: biochemical; conditions: read-out: % enzyme activity, 1 μM; Run 1, Run 2

COc1cc(-c2cncc(-c3ccc(N4CCN(C(C)C)CC4)cc3)c2C)cc(F)c1C(N)=O [Compound 26b, 2-Fluoro-4-(5-(4-(4-isopropylpiperazin-1-yl)phenyl)-4-methylpyridin-3-yl)-6-methoxybenzamide]
% enzyme activity (ABL2/ARG): 98.48% | % enzyme activity (CAMK1a): 91.83% | % enzyme activity (CLK1): 92.82% | % enzyme activity (CLK2): 87.08% | % enzyme activity (ERN2/IRE2): 103.94% | % enzyme activity (LIMK2): 102.22% | % enzyme activity (MEKK1): 87.93% | % enzyme activity (MKK4): 94.30% | % enzyme activity (MLK4): 89.41% | % enzyme activity (MYLK4 [1]): 95.46% | % enzyme activity (NEK3): 95.23% | % enzyme activity (PKG1a): 103.73% | % enzyme activity (SIK3): 71.66% | % enzyme activity (TYK1/LTK): 100.49% | % enzyme activity (TYRO3/SKY): 95.17% | remaining activity at 1 µM (ARK5/NUAK1): 92.5% | remaining activity at 1 µM (BRSK1): 87.9% | remaining activity at 1 µM (BRSK2): 73.8% | remaining activity at 1 µM (CAMK1b): 101% | remaining activity at 1 µM (CDK16/cyclin Y (PCTAIRE)): 91.3% | remaining activity at 1 µM (CHK1): 106% | remaining activity at 1 µM (DCAMKL1): 84.7% | remaining activity at 1 µM (DYRK4): 97.2% | remaining activity at 1 µM (ERN1/IRE1): 98.3% | remaining activity at 1 µM (HCK): 95.1% | remaining activity at 1 µM (JAK1): 96.7% | remaining activity at 1 µM (KSR1): 93.6% | remaining activity at 1 µM (KSR2): 97.2% | remaining activity at 1 µM (LATS1): 101% | remaining activity at 1 µM (LOK/STK10): 61.6% | remaining activity at 1 µM (LYN B): 95.1% | remaining activity at 1 µM (MEK1): 104% | remaining activity at 1 µM (MYLK4 [2]): 95.9% | remaining activity at 1 µM (P38a/MAPK14): 99.8% | remaining activity at 1 µM (P38g): 94.4% | remaining activity at 1 µM (PKCb1): 87.7% | remaining activity at 1 µM (PKCiota): 100% | remaining activity at 1 µM (RSK1): 97% | remaining activity at 1 µM (RSK3): 101% | remaining activity at 1 µM (STK16): 102% | remaining activity at 1 µM (TBK1): 87% | remaining activity at 1 µM (TLK2): 95.2% | remaining activity at 1 µM (TTBK1): 96.9%
